For assay [1], the system named is S. aureus ATCC 25923. In words: MIC, agar incorporation method. The following applies: Staphylococcus aureus, ATCC25923, read-out: MIC S. aureus 25923.
Assay [2] concerns E. faecalis. As to the kind of experiment: Summary of in vitro activity (MIC). The following applies: Enterococcus faecalis, read-out: Geometric Mean of in vitro activity (MIC).
The subject of assay [3] is S. aureus. In words: Summary of in vitro activity (MIC). The following applies: Staphylococcus aureus, read-out: Geometric Mean of in vitro activity (MIC).

≈ marks a conversion by molar mass, not a printed value.

For orientation: MIC means the least concentration at which growth counts as inhibited. Regarding `CN[C@H](CC(C)C)C(=O)N[C@H]1C(=O)N[C@@H](CC(N)=O)C(=O)N[C@H]2C(=O)N[C@H]3C(=O)N[C@H](C(=O)N[C@H](C(=O)O)c4cc(O)cc(O)c4-c4cc3ccc4O)[C@H](O)c3ccc(c(Cl)c3)Oc3cc2cc(c3O[C@@H]2O[C@H](CO)[C@@H](O)[C@H](O)[C@H]2O[C@H]2C[C@](C)(N)[C@H](O)[C@H](C)O2)Oc2ccc(cc2Cl)[C@H]1O` [Vancomycin], the MIC in assay [1] was found to be 1 µg/mL (≈ 0.69 µM); in assay [2] it was 9.75 µg/mL (≈ 6.73 µM); in assay [3], 1 µg/mL (≈ 0.69 µM).

The values are drawn from US20040254162A1, “Oxazolidinone derivatives as antimicrobials” (priority 2001, published 2004).
